# In patent US7524823B2, “Macrolides” (Basilea Pharmaceutica AG, priority 2005, dated 2009):
# Tested on: Human neutrophils
# Experiment: Modulation of neutrophil elastase production
# Assay type: cell-based
# Conditions: test compound 50 μM; fMLP 0.1 μM, cytochalasin B 5 mg/L; blood from 3 donors
# Excerpt: The neutrophil granulocyte is a key element of the inflammatory process. The neutrophils migrate to the site of inflammation and can be activated to release toxic products, including proteolytic enzymes such as elastase. […] Elastase is a major secreted product of activated neutrophils and is a major contributor to the destruction of tissue in inflammatory disease. Several bioassays based on the repression of secretion of elastase, have been described and used for the detection of anti-inflammatory products (Johansson, […]. Nat. Prod. 65: 32-41). […] The neutrophils are activated by addition of the bacterial product N-formyl methionyl-leucyl-phenylalanine (fMLP) and cytochalasin B, a stimulator of secretion. The amount of elastase secreted is determined by measuring the reaction of elastase with the chromogenic substrate succinyl-alanyl-alanyl-valyl-nitroanilide ([…]), which generates 4-nitroaniline after cleavage by elastase. […] Human neutrophils are isolated by applying whole heparinized blood to a Histopaque column and collecting the granulocytes by centrifugation. […] The total volume of the reaction mixture is 0.8 mL and concentrations specified are the final concentrations in the mixture. […] Neutrophil preparations from blood from 3 different donors were used in parallel. All samples were measured in duplicate. […]
structure (smiles),measurement,value
"CCC[C@@H]1C[C@@H](C(=O)N[C@@H]([C@H]2O[C@H](SC)[C@H](O)[C@@H](O)[C@H]2O)[C@H](C)Cl)N(C)C1 [Clindamycin, reference compound]",Average repression of activation (%),4 ± 0.07%
